Results deposited as PubChem BioAssay AID743454 (Peter MacCallum Cancer Centre, 2014)
The whole screen tested about 18,000 reagents; this is a part drawn at random. 450 of all reagents (2.5%) were called active. 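Single biological run; no consistent viability z cut-off exists, so the class columns, not z-scores, define the calls.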

- Test: 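Knock-downs lowering viability or raising caspase 3/7 activity in vorinostat-treated resistant cells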 (primary screen)
- Cells: human HCT116-VR colon cancer cells, selected for vorinostat resistance
- Reagents: siRNA pool against human genes, 40 nM siRNA pool
- Duration: vorinostat for 24 h, read-out about 72 h after transfection
- Challenge: vorinostat at 2.5 µM final
- Measured: 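Two measures, CellTiter-Fluor viability and luminescent caspase 3/7 activity, each as fold change against same-plate mock wells, mean of duplicates, then screen-wide robust z-score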
- Reading the numbers: viability robust z-score: higher = more viable cells than screen typical; caspase robust z-score: higher = more caspase 3/7 activity than screen typical
- Call rule: 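Hits are knock-downs in viability class RV1/RV2 or caspase class CA1/CA2, excluding ones that killed cells in the no-drug cell-count arm; hits then retested with single siRNAs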

gene symbol | viability hit class | caspase hit class | viability robust z-score | caspase robust z-score | Call
AFAP1L1 | no change | no change | -0.44 | 0.96 | inactive
SSX6P | no change | no change | -0.72 | -0.82 | inactive
HKDC1 | no change | no change | 0.02 | -0.06 | inactive
EGFL7 | no change | no change | -0.64 | 1.58 | inactive
PRKDC | no change | no change | -0.11 | 1.27 | inactive
MMP13 | no change | CA1 (caspase activation) | -0.8 | 5.47 | active
TNNC1 | no change | no change | -1.94 | 4.71 | inactive
ANP32E | no change | no change | 0.86 | -0.23 | inactive
POLI | no change | no change | 0.1 | -0.24 | inactive
MARCHF10 | no change | no change | -1.93 | 4.05 | inactive
LRRIQ1 | no change | no change | 0.88 | -0.65 | inactive
HSFY1 | no change | no change | 0.45 | -0.85 | inactive
CTNNBL1 | no change | no change | 0.6 | 1.38 | inactive
KARS1 | no change | no change | -2.29 | 2.42 | inactive
ZNF189 | no change | no change | 0.2 | -0.32 | inactive
CCDC167 | no change | no change | 1 | -0.5 | inactive
KRT72 | no change | no change | 0.52 | -0.52 | inactive
WDR83 | no change | no change | -2.16 | 1.25 | inactive
SMC2 | no change | no change | -0.27 | 0.28 | inactive
CFHR2 | no change | no change | 0.57 | -0.45 | inactive
NUDT12 | no change | no change | -0.05 | 0.54 | inactive
CYSRT1 | no change | no change | 0.58 | -0.8 | inactive
ZNF25 | no change | no change | -0.7 | -1.35 | inactive
DHH | no change | no change | 0.22 | 2.13 | inactive
ARHGEF5 | no change | no change | 1.42 | 0.45 | inactive
ST7 | no change | no change | -0.2 | -0.85 | inactive
SH3TC2 | no change | no change | 0.41 | 1.82 | inactive
KRT6C | no change | no change | -0.34 | -0.52 | inactive
SPACA5B | no change | no change | 0.42 | 0.03 | inactive
NDUFV1-DT | no change | no change | -0.32 | 0.81 | inactive
MYBBP1A | no change | no change | -1.12 | -0.69 | inactive
NRCAM | no change | no change | 1.77 | -0.3 | inactive
MCM7 | no change | no change | 1.4 | -0.19 | inactive
TDRD1 | no change | no change | -0.59 | 2.48 | inactive
MEIOB | no change | no change | -0.88 | -1.13 | inactive
KRT6A | no change | no change | -0.35 | -0.04 | inactive
CGB2 | no change | no change | 0.5 | -0.36 | inactive
UGT2B17 | no change | no change | 0.02 | -0.9 | inactive
ICAM5 | no change | no change | -0.55 | 0.15 | inactive
SYT7 | no change | no change | -0.32 | -0.86 | inactive
DUOX1 | no change | no change | 0.8 | 0.01 | inactive
MAP3K8 | no change | no change | -0.34 | -1.14 | inactive
ZNF510 | no change | no change | 0.01 | -0.84 | inactive
MIIP | no change | CA1 (caspase activation) | -1.7 | 6.62 | active
FRG1 | no change | no change | 1.15 | -0.4 | inactive
ATXN2L | no change | no change | 0.68 | -0.64 | inactive
SUCLG1 | no change | no change | 0.19 | -0.57 | inactive
ACTR1A | no change | no change | 0.74 | 1.15 | inactive
H2AC4 | no change | no change | -0.83 | -0.88 | inactive
POTEB3 | no change | no change | 0.58 | -0.75 | inactive
TMEM8B | no change | no change | -1.84 | 1.38 | inactive
CST5 | no change | no change | -0.74 | 0.01 | inactive
LURAP1L | no change | no change | 0.36 | 0.55 | inactive
HAVCR1 | no change | no change | 0.57 | -0.28 | inactive
PHF13 | no change | no change | 0.61 | 1 | inactive
USP34 | no change | no change | 0.69 | -1.11 | inactive
SERTAD4 | no change | no change | 1.34 | -0.58 | inactive

Called active, among the entries above:
gene symbol | viability hit class | caspase hit class | viability robust z-score | caspase robust z-score | Call
MMP13 | no change | CA1 (caspase activation) | -0.8 | 5.47 | active
MIIP | no change | CA1 (caspase activation) | -1.7 | 6.62 | active
